Experimental data as given in paper PMC13142658.
No constants are given. Whether binding was seen depends on the method and setting. Binding seen in cells or lysates may run through a third protein. Some results given as binding are weak or reduced against the parent protein; the word gives no strength.

Chains of the proteins cited; added tags and fusions are not shown. Lines headed by an entry give the natural chain unless they say otherwise; changes in a name come on top.
UniProt P26450: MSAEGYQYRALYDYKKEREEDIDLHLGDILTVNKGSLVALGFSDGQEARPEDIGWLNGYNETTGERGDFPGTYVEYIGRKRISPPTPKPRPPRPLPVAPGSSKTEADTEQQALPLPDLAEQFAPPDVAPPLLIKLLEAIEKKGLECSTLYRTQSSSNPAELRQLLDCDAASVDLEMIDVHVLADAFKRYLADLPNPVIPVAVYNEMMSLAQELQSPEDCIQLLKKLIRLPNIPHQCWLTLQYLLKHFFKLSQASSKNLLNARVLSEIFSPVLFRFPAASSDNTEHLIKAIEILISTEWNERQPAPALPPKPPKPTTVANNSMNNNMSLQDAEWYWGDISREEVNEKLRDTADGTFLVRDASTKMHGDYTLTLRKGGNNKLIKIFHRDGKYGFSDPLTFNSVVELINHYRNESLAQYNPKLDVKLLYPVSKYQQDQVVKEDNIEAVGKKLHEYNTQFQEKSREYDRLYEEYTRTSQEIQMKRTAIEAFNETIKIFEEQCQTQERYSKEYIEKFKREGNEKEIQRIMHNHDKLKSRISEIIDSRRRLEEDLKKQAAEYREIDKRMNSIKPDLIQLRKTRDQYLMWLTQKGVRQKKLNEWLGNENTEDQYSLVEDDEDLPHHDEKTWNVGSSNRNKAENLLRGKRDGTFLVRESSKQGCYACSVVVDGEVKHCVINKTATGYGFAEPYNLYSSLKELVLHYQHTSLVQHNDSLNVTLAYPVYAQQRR

Molecular target: T1, TACI (mouse (endogenous in mouse splenic B cells)) (UniProt Q9ET35)
T1 sequence: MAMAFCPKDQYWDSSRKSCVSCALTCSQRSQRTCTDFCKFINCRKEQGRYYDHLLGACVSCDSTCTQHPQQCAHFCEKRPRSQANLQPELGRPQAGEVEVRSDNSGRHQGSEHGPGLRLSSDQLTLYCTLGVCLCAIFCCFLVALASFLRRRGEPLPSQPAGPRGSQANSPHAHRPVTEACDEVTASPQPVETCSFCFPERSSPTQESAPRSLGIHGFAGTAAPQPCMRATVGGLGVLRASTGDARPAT
Experiment: co-IP; goat polyclonal anti-mouse-TACI and protein-G Dynabeads, cleared lysates of 2 x 10^7 LPS blasts (1% IGEPAL CA-630, 150 mM NaCl), 4°C; cells stimulated with APRIL, BAFF (200 ng/ml) or media only for 15 min at 37°C; control IP with normal goat IgG; immunoblot

PI3Kδ (p85α regulatory subunit and p110δ catalytic subunit) (from UniProt P26450 1-724; O35904 1-1043) (complex)
binding: binds
